{"source": "paper PMC10975445", "key": {"[1]": {"biological_target": "T1, PepR (HD73_5014), DeoR family regulator (Bacillus thuringiensis HD73) (UniProt A0A0B5X633)", "assay": "EMSA", "conditions": "native PAGE, FAM scan, recombinant protein, residues 1-73, protein details: His tag (pET21b, BamHI/SalI, PepR-His), probe letters rebuilt from the primers and the genome"}, "[2]": {"biological_target": "T1, PepR (HD73_5014), DeoR family regulator (Bacillus thuringiensis HD73)", "assay": "competition with a labelled probe", "conditions": "200-fold excess unlabeled probe competed with labeled PpepV; EMSA, native PAGE, FAM scan; recombinant protein; residues 1-73; protein details: His tag (pET21b, BamHI/SalI, PepR-His); probe letters rebuilt from the primers and the genome"}}, "note": "For part of these data: No signal at the amounts used counts as a negative. Construct, isoform or probe ends are uncertain for at least one entry.", "data": [{"sequence": "CGCGGATCCCATCACGCATCCATCCTTCACTATATTGTTTCTTTCATCATAACAAACCGAAATCTCTTATGCCATACACGAAAACTAAATACCGAACAATTGTAATATTTCAGATATTTCTTATTAGTTTTTCTTTTATTTTTTCAAAAAAATTTGCAGGAATTTGGCGTTTTACGTAGAATTTTATGTGTTAGTTGACTGACCATATATACAATGTCAACTACCAATATTTTTCTATATGAATATTTGTTAAATTTCTGTAAAATTTAAGTAGATTAAAGCATGAATTTTATCATGTAGAGTACAATGGTAGTAACGACCTTCTTTCCTGAATGGGGTCAAAAAAACTAGTAGAGGAGTGGTTTTCTCCTGCAGTT (double strand) [PpepV promoter fragment]", "values": [{"measurement": "binding result", "setting": "[1]; 0.21 nM probe, PepR 14.91-44.73 uM, strong shift at 44.73 (text prints nM, legend uM), label: 5'-FAM", "result": "binds"}]}, {"sequence": "CGCGGATCCGTAACAATAAGCGTTCCGCGCAGAAATTTCGAATCGGACATACAAAAATCCTCCTACATCTACATAAAGTGAAACTATAATTAGTTGGAGACTTCTCTCCTACTCCTTATTAGTTGAACCATTCGAGCATTTACAGGCTAACAGACTCCCTATTTACTTCTCCTAAATCTTGAGGTTTTAGTCTTATCGCCTACAAATGGCAGGATAGTGCTGAACTCTAACTTTTGTATTGTACCACAATTCTCTCATTAAGCAGTACTTCACTCTATTTTTCTTTTAAGGGAAAACATGCTATTCTTTTAGGCAGGAAATGTAGAAAATGAGGTCGATATATTATGCATTATGATGTTATTGTCATCGGCGGCGGTCCTTCTGGGCTAATGGCTGCAATTGGTGCTGCAGCTGCAGTT (double strand) [PrsuA-ytgP promoter fragment]", "values": [{"measurement": "binding result", "setting": "[1]; 0.19 nM probe, no shift at PepR 14.91-44.73 uM, label: FAM", "result": "no binding"}]}, {"sequence": "CGCGGATCCCATCACGCATCCATCCTTCACTATATTGTTTCTTTCATCATAACAAACCGAAATCTCTTATGCCATACACGAAAACTAAATACCGAACAATTGTAATATTTCAGATATTTCTTATTAGTTTTTCTTTTATTTTTTCAAAAAAATTTGCAGGAATTTGGCGTTTTACGTAGAATTTTATGTGTTAGTTGACTGACCATATATACAATGTCAACTACCAATATTTTTCTATATGAATATTTGTTAAATTTCTGTAAAATTTAAGTAGATTAAAGCATGAATTTTATCATGTAGAGTACAATGGTAGTAACGACCTTCTTTCCTGAATGGGGTCAAAAAAACTAGTAGAGGAGTGGTTTTCTCCTGCAGTT (double strand) [PpepV promoter fragment, unlabeled competitor]", "values": [{"measurement": "binding result", "setting": "[2]", "result": "binds"}]}]}
